According to the supplement of paper PMC10849652:
Some of the results follow. Residues, ends and D or L forms follow the SMILES beside them. *: point of attachment. Cbz = O=C(OCc1ccccc1)*

Sequences of proteins named here, by UniProt entry; tags and fusion partners are left off. A change or cut given only in a name is not applied to a line headed by its entry.
UniProt Q8N129: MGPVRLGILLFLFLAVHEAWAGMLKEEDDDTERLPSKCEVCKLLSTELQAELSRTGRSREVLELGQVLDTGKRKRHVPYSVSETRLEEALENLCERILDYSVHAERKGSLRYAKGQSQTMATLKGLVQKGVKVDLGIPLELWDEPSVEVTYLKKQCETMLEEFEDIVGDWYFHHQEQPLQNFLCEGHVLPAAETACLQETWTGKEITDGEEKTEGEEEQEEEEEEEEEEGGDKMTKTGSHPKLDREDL
UniProt Q96JB2: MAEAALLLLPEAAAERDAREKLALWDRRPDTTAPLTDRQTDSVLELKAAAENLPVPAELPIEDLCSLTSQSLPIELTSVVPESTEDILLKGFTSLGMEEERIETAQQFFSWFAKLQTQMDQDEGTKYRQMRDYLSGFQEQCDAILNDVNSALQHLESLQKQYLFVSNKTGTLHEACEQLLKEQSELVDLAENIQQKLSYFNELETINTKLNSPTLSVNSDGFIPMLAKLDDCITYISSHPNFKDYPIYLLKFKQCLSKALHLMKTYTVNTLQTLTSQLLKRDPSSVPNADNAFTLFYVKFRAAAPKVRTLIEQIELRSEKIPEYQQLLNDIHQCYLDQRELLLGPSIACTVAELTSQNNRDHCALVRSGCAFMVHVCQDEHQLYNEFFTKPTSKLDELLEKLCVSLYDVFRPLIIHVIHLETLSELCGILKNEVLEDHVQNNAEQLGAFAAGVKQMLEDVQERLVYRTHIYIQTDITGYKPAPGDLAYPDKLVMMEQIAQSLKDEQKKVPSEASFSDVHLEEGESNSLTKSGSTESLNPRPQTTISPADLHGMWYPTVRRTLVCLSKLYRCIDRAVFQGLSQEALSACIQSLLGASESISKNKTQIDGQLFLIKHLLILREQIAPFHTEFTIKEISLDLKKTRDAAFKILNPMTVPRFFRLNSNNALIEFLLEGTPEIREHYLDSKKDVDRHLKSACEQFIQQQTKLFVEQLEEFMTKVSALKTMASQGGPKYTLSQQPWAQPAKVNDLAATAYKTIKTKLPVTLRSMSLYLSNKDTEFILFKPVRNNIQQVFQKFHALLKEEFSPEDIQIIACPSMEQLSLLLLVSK
UniProt Q9Y4C5: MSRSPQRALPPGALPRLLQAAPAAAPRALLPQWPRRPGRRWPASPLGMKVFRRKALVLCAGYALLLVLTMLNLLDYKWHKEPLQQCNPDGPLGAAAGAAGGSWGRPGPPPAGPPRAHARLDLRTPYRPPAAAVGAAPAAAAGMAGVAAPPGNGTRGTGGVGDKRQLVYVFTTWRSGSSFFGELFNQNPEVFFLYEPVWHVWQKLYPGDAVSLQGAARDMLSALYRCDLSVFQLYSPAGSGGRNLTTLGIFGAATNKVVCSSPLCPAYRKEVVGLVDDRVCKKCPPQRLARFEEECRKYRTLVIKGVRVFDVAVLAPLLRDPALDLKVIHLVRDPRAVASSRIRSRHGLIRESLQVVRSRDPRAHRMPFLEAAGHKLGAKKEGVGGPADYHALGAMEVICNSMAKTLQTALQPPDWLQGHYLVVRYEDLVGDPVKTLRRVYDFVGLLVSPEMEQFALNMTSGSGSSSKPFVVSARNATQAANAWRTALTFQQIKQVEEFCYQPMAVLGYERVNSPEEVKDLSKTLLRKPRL
UniProt Q8N2M8: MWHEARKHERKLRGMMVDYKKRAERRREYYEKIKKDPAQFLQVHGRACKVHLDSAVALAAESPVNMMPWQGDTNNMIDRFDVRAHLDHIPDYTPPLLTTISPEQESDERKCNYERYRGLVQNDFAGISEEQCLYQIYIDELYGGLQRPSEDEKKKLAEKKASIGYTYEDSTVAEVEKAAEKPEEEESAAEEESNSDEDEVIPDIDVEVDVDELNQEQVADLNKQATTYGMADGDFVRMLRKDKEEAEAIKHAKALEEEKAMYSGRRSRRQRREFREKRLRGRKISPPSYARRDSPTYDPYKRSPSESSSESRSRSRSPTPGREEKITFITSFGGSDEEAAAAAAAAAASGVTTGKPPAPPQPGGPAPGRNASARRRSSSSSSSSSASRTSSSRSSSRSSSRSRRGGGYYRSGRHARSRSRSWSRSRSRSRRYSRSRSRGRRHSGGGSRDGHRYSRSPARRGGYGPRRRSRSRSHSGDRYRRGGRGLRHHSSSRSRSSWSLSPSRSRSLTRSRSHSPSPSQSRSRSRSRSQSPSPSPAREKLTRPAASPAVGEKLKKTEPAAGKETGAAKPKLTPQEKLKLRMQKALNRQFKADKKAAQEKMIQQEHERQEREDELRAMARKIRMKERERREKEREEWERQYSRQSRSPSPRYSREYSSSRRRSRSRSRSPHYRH
UniProt Q9P003: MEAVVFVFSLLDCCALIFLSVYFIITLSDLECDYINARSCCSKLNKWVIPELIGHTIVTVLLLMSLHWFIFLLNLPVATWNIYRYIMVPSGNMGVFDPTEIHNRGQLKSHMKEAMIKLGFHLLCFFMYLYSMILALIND
UniProt Q96F85: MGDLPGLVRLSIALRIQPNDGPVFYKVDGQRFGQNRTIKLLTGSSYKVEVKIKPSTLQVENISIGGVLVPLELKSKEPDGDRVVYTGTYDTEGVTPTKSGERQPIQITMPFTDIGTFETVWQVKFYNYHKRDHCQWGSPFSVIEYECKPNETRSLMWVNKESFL
UniProt P62633: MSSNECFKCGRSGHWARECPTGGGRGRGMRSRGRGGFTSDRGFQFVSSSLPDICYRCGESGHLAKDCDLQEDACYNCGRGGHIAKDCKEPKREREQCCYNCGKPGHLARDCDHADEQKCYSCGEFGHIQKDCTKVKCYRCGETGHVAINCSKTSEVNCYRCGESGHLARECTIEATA
UniProt Q8N9A8: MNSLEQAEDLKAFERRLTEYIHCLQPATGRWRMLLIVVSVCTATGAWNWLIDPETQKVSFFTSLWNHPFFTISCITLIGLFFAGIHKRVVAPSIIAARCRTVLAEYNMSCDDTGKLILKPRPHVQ
UniProt P51795: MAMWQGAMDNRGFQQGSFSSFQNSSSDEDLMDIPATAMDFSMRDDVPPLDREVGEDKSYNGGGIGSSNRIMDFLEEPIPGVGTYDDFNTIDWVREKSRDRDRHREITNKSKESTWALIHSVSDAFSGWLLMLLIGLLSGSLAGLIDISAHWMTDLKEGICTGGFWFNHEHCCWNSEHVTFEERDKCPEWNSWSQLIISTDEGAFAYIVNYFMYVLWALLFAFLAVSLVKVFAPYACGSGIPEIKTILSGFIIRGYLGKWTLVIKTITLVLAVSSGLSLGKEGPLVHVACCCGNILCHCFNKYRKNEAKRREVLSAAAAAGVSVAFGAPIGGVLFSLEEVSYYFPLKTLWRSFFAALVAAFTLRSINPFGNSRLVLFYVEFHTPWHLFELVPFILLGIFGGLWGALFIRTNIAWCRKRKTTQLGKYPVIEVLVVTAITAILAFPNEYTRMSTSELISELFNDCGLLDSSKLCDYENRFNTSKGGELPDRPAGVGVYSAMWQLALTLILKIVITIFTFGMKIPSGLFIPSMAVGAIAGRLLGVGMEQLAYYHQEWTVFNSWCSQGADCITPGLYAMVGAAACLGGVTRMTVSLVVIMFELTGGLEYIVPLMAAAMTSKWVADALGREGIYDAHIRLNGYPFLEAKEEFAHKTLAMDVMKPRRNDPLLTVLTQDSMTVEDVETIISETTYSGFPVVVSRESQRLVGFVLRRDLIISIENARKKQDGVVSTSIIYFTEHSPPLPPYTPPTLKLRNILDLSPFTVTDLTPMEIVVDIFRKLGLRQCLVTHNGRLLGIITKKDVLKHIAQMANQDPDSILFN
UniProt Q07065: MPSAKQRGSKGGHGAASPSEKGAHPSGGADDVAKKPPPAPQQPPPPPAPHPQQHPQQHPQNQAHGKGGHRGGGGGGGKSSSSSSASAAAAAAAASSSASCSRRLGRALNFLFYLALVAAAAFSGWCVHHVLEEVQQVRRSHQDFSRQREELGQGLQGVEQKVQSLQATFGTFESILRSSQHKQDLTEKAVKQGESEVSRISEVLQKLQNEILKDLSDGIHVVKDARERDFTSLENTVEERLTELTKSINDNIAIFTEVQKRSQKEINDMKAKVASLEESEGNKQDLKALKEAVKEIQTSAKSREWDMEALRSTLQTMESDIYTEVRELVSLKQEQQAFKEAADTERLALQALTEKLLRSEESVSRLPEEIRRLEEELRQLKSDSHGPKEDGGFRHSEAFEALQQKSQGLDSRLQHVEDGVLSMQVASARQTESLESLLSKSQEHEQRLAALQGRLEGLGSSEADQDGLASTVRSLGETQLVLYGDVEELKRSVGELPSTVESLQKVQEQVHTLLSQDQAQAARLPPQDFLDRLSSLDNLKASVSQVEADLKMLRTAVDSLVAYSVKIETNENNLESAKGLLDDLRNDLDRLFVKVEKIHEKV
UniProt Q9Y3D0: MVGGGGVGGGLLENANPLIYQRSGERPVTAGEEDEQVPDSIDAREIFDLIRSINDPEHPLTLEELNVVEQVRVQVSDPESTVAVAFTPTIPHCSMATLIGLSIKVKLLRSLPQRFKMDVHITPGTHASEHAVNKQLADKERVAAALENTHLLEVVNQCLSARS
UniProt Q8N0X4: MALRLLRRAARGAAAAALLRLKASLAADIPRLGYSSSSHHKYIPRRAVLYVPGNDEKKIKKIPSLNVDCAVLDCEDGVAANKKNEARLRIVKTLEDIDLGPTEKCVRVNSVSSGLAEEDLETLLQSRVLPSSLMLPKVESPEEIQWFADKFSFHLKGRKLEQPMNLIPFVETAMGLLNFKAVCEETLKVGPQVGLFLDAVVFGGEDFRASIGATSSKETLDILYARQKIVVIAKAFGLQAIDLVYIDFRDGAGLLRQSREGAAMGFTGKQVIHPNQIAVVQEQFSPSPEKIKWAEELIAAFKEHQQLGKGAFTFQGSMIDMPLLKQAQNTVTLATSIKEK
UniProt P56749: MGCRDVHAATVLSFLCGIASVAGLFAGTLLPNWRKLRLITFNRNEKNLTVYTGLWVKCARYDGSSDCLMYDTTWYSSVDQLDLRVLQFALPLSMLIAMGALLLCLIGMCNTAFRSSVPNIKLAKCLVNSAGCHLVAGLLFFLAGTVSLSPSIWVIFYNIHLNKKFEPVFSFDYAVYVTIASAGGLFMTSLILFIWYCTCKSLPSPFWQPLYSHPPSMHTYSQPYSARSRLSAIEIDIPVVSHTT
UniProt O94985: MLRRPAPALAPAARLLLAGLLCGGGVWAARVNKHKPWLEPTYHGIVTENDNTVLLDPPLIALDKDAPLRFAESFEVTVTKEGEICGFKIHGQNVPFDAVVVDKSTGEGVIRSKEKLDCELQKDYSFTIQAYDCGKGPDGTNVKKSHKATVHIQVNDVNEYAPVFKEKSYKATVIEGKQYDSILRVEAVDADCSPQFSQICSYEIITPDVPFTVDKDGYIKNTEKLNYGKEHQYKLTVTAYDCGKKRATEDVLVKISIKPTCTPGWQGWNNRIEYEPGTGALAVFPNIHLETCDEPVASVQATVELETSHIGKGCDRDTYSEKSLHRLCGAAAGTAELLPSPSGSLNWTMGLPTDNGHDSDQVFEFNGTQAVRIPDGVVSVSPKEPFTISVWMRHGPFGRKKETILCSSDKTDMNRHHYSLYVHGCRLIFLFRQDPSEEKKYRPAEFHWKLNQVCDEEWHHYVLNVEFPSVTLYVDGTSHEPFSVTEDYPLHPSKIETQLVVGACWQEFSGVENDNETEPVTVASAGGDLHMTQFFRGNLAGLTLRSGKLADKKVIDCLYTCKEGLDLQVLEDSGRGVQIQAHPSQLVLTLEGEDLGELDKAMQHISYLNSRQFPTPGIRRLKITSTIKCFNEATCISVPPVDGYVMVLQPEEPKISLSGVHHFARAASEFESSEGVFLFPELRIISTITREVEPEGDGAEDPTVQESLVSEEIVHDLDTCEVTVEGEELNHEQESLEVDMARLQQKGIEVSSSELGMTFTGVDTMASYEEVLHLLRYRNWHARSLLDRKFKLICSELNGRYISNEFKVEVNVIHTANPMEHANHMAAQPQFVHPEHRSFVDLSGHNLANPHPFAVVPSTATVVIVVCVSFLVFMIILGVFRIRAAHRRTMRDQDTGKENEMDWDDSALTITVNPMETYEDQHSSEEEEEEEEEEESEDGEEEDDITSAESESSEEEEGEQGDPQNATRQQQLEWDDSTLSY
UniProt Q8WUD6: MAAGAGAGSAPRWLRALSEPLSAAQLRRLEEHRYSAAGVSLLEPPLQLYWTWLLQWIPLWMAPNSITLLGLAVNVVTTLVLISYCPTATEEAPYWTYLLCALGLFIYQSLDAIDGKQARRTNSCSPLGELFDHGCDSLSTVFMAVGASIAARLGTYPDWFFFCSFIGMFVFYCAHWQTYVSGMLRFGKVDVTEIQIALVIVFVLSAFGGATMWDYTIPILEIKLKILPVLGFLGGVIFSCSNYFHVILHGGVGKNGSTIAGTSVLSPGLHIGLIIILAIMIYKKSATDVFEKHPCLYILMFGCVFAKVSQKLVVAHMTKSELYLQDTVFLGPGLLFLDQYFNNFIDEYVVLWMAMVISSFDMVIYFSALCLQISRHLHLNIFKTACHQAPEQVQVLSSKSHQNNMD
UniProt P33552, whole entry, looked up: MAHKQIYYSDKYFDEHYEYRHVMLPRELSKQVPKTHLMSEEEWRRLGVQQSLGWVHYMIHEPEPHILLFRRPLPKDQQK

How the values were obtained:
Experiment in all cases: log2 fold change, soluble protein after heating vs DMSO (PISA); higher = thermal stabilisation; K562 cells, 10 uM, 30 min; active = over 0.2 and 3.5 SD of the protein, either way, in both replicates (recomputed)
erlotinib = compound: C#Cc1cccc(Nc2ncnc3cc(OCCOC)c(OCCOC)cc23)c1 [erlotinib]
Summary of the method: (§1)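 K562 cells (2×10^6 cells/mL) were treated with 10 μM compound for 30 min, and aliquots were heated for 3 min over 48°C-58°C. Pooled aliquots were extracted in PBS with 0.5% NP-40 at 4°C, and the supernatant after 21,000xg for 90 min was measured by TMTpro 16plex LC-MS/MS with channel sums equalised. Reported thermal stability, relative to control samples and from duplicates, is a log2 fold change.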

[1] = compound: C/C(=N\NC(=O)C1=CC(=CC=C1)S(=O)(=O)N2CCOCC2)/C3=C(C=CC(=C3)Cl)O
Summary of the method: as §1

[2] = compound: C1=CC(=CC=C1C2=NC3=C(N2)C=C(C=C3)C(=O)N)OC4=CC=C(C=C4)Cl
Summary of the method: as §1

[3] = compound: C1=CC2=C(C=CC(=C2)/C=C\3/C(=O)NC(=NCC4=CC=CS4)S3)N=C1
Summary of the method: as §1

[4] = compound: C1=CC2=NC=CN=C2C=C1/C=C/3\C(=O)NC(=O)S3
Summary of the method: as §1

[5] = compound: C1=CC=C(C=C1)C2=NC(=C(N2)C3=CC=NC=C3)C4=CC(=C(C=C4)Cl)O
Summary of the method: as §1

[6] = compound: C1=CC=C2C(=C1)C3=NNC4=CC=CC(=C43)C2=O
Summary of the method: as §1

[7] = compound: C1CCN(C1)C(=O)NC2=CC=CC(=C2)NC3=NC=C(C(=N3)NCCC4=CN=CN4)Br
Summary of the method: as §1

[8] = compound: C1CN(CCC1(CC2=CC=C(C=C2)Cl)N)C3=NC=NC4=C3C=CN4
Summary of the method: as §1

ibrutinib = compound: C=CC(=O)N1CCC[C@@H](n2nc(-c3ccc(Oc4ccccc4)cc3)c3c(N)ncnc32)C1 [ibrutinib]
Summary of the method: as §1

[9] = compound: CC(=O)c1cnc2ccc(-c3cc(Cl)c(O)c(Cl)c3)nc2c1N[C@H]1CC[C@H](CN(C)C)CC1
Summary of the method: as §1

ralimetinib = compound: CC(C)(C)Cn1c(N)nc2ccc(-c3[nH]c(C(C)(C)C)nc3-c3ccc(F)cc3)nc21 [ralimetinib]
Summary of the method: as §1

[10] = compound: CC(C)C1=C2N=C(C=C(N2N=C1)NCC3=CC=CC=C3)NCCCCCCN
Summary of the method: as §1

[11] = compound: CC(C)C[C@@H](C=O)NC(=O)[C@H](CC(C)C)NC(=O)[C@H](CC(C)C)NC(=O)OCc1ccccc1
Summary of the method: as §1

[12] = compound: CC1=C(C(CC(=O)N1)C2=CC=C(C=C2)C(F)(F)F)C(=O)NC3=C(C=C4C(=C3)C=NN4)F
Summary of the method: as §1

[13] = compound: CC1=C(C2=C(C=C1)C(=O)C3=CC=CC=C3N2CCCN)C
Summary of the method: as §1

[14] = compound: C1=CC(=C(C=C1Cl)C2=NC3=NC=CN=C3C(=N2)NC4=CC=NC=C4)F
Summary of the method: as §1

IRAK-1-4 Inhibitor I = compound: C1COCCN1CCN2C3=CC=CC=C3N=C2NC(=O)C4=CC(=CC=C4)[N+](=O)[O-] [IRAK-1-4 Inhibitor I]
Summary of the method: as §1

[15] = compound: CC(C)(O)CC(=O)NCCn1ccc2ncnc(Nc3ccc(Oc4cccc(C(F)(F)F)c4)c(Cl)c3)c21
Summary of the method: as §1

pinometostat = compound: CC(C)N(C[C@H]1O[C@@H](n2cnc3c(N)ncnc32)[C@H](O)[C@@H]1O)[C@H]1C[C@@H](CCc2nc3cc(C(C)(C)C)ccc3[nH]2)C1 [pinometostat]
Summary of the method: as §1

Measured: log2 fold change

CNPY4 (UniProt Q8N129)
inactive: erlotinib 0.02 | [1] 0.004 | [2] 0.001 | [3] -0.081 | [4] 0.087 | [5] -0.036 | [6] 0.086 | [7] -0.061 | [8] 0.101 | ibrutinib 0.027 | [9] -0.07 | ralimetinib -0.058 | [10] 0.059 | [11] -0.098 | [12] -0.041 | [13] -0.065

COG3 (UniProt Q96JB2)
inactive: erlotinib -0.07 | [14] -0.028 | [2] -0.487 | [4] -0.029 | [5] -0.078 | IRAK-1-4 Inhibitor I -0.054 | ibrutinib 0 | ralimetinib 0.14 | [15] -0.016 | [10] -0.502 | [11] 0.047 | pinometostat 0.009

CHST2 (UniProt Q9Y4C5)
inactive: erlotinib -0.008 | [1] -0.05 | [14] -0.052 | [2] -0.098 | [3] 0.095 | [4] 0.093 | [6] 0.136 | [7] -0.124 | [8] 0.125 | IRAK-1-4 Inhibitor I -0.087 | ibrutinib -0.092 | [9] 0.06 | [15] 0.037 | [10] 0.082 | pinometostat 0.091 | [12] -0.006 | [13] 0.157

CLASRP (UniProt Q8N2M8)
inactive: erlotinib 0.034 | [1] 0.093 | [14] -0.006 | [2] 0.079 | [3] 0.253 | [4] 0.054 | [6] -0.092 | IRAK-1-4 Inhibitor I 0.027 | [9] -0.105 | [15] 0.045 | [10] -0.114 | pinometostat 0.035 | [12] 0.149

CNIH4 (UniProt Q9P003)
inactive: erlotinib -0.129 | [1] 0.088 | [2] 0.028 | [3] 0.127 | [4] 0.076 | [5] -0.085 | [6] 0 | [7] 0.081 | [8] 0.047 | IRAK-1-4 Inhibitor I 0.127 | ibrutinib 0.137 | [9] 0.102 | ralimetinib 0.062 | [10] -0.082 | [11] 0.049 | pinometostat 0.008 | [12] -0.038 | [13] 0.03

CNRIP1 (UniProt Q96F85)
inactive: erlotinib -0.065 | [14] 0.045 | [2] 0.045 | [5] -0.115 | ralimetinib -0.051 | [15] -0.255 | [10] 0.034 | [11] 0.116

CLN5 (UniProt O75503)
inactive: erlotinib 0.146 | [1] -0.049 | [14] 0.063 | [2] 0.103 | [3] 0.023 | [4] 0.016 | [6] 0.15 | [7] -0.02 | [8] -0.285 | IRAK-1-4 Inhibitor I 0.023 | [9] -0.03 | [15] 0.001 | [10] -0.62 | pinometostat -0.062 | [13] -0.028

CNBP (UniProt P62633)
inactive: erlotinib 0.132 | [1] -0.071 | [2] -0.108 | [3] -0.227 | [4] 0.005 | [6] -0.079 | ibrutinib 0.068 | [9] -0.009 | [10] -0.102 | [12] 0.024

CNEP1R1 isoform 2 (UniProt Q8N9A8)
inactive: erlotinib 0.082 | [1] 0.029 | [2] 0.075 | [3] -0.015 | [6] 0.219 | [7] -0.307 | [8] 0.02 | [9] -0.117 | [10] -0.005 | [13] 0.283

CLCN5 isoform 2 (UniProt P51795)
inactive: erlotinib -0.009 | [2] 0.064 | [5] 0.125 | [7] -0.098 | [8] -0.011 | IRAK-1-4 Inhibitor I -0.019 | ralimetinib -0.154 | [10] -0.29 | [11] -0.004 | pinometostat 0.061 | [13] 0.009

CKAP4 (UniProt Q07065)
inactive: [1] 0.118 | [3] 0.003 | [5] -0.087 | [6] 0.012 | [7] -0.054 | [8] -0.029 | [9] -0.158 | ralimetinib -0.123 | [11] -0.049 | [12] 0 | [13] 0.114

Four consecutive entries from above:
CNPY4 (UniProt Q8N129)
inactive: erlotinib 0.02 | [1] 0.004 | [2] 0.001 | [3] -0.081 | [4] 0.087 | [5] -0.036 | [6] 0.086 | [7] -0.061 | [8] 0.101 | ibrutinib 0.027 | [9] -0.07 | ralimetinib -0.058 | [10] 0.059 | [11] -0.098 | [12] -0.041 | [13] -0.065

COG3 (UniProt Q96JB2)
inactive: erlotinib -0.07 | [14] -0.028 | [2] -0.487 | [4] -0.029 | [5] -0.078 | IRAK-1-4 Inhibitor I -0.054 | ibrutinib 0 | ralimetinib 0.14 | [15] -0.016 | [10] -0.502 | [11] 0.047 | pinometostat 0.009

CHST2 (UniProt Q9Y4C5)
inactive: erlotinib -0.008 | [1] -0.05 | [14] -0.052 | [2] -0.098 | [3] 0.095 | [4] 0.093 | [6] 0.136 | [7] -0.124 | [8] 0.125 | IRAK-1-4 Inhibitor I -0.087 | ibrutinib -0.092 | [9] 0.06 | [15] 0.037 | [10] 0.082 | pinometostat 0.091 | [12] -0.006 | [13] 0.157

CLASRP (UniProt Q8N2M8)
inactive: erlotinib 0.034 | [1] 0.093 | [14] -0.006 | [2] 0.079 | [3] 0.253 | [4] 0.054 | [6] -0.092 | IRAK-1-4 Inhibitor I 0.027 | [9] -0.105 | [15] 0.045 | [10] -0.114 | pinometostat 0.035 | [12] 0.149

Later entries.

CIAO2B (UniProt Q9Y3D0)
inactive: erlotinib 0.053 | [2] -0.029 | [4] -0.047 | IRAK-1-4 Inhibitor I -0.022 | ibrutinib 0.025 | [10] -0.17 | pinometostat 0.184 | [12] 0.038

CLYBL (UniProt Q8N0X4)
inactive: erlotinib 0.029 | [2] 0.081 | [10] 0.077

CLDN12 (UniProt P56749)
inactive: [14] -0.143 | [4] 0.142 | [15] 0.147

CLSTN1 (UniProt O94985)
inactive: [1] -0.22 | [3] 0.312 | [4] 0.087 | [5] -0.681 | [6] -0.005 | [7] 0.27 | [8] -0.082 | IRAK-1-4 Inhibitor I 0.028 | [9] -0.044 | ralimetinib -0.188 | [11] -0.044 | pinometostat -0.007 | [13] -0.15

CHPT1 (UniProt Q8WUD6)
inactive: [1] 0.181 | [14] 0.24 | [3] 0.078 | [5] 0 | [6] -0.024 | [7] -0.004 | [8] 0.01 | [9] 0.023 | ralimetinib -0.132 | [15] 0.223 | [11] -0.002 | [13] 0.044

CNBP isoform 4 (UniProt P62633)
inactive: [4] 0.002 | ibrutinib 0.05 | [12] 0.032

CKS2 (UniProt P33552)
inactive: [1] 0.125 | [3] 0.116 | [4] -0.001 | [6] -0.032 | [7] 0.022 | [8] 0.02 | ibrutinib -0.087 | [9] -0.168 | [13] -0.058
